Measured values reported in patent US20070178448A1.
No constants are given. Whether binding was seen depends on the method and setting. Some binding calls cover weakened binding; strength is not graded here. Tags and fused reporters may be left off the sequences shown.

Target: streptavidin (UniProt P22629)
Assay: phage ELISA, streptavidin coated plate, anti-M13 HRP detection

AGQTLLAHPQ (peptide, not shown: large carriers)
binding: binds
